The values below come from paper PMC7618180.

Amino acid sequences for entries named in this document (tags omitted).
UniProt Q5T4S7: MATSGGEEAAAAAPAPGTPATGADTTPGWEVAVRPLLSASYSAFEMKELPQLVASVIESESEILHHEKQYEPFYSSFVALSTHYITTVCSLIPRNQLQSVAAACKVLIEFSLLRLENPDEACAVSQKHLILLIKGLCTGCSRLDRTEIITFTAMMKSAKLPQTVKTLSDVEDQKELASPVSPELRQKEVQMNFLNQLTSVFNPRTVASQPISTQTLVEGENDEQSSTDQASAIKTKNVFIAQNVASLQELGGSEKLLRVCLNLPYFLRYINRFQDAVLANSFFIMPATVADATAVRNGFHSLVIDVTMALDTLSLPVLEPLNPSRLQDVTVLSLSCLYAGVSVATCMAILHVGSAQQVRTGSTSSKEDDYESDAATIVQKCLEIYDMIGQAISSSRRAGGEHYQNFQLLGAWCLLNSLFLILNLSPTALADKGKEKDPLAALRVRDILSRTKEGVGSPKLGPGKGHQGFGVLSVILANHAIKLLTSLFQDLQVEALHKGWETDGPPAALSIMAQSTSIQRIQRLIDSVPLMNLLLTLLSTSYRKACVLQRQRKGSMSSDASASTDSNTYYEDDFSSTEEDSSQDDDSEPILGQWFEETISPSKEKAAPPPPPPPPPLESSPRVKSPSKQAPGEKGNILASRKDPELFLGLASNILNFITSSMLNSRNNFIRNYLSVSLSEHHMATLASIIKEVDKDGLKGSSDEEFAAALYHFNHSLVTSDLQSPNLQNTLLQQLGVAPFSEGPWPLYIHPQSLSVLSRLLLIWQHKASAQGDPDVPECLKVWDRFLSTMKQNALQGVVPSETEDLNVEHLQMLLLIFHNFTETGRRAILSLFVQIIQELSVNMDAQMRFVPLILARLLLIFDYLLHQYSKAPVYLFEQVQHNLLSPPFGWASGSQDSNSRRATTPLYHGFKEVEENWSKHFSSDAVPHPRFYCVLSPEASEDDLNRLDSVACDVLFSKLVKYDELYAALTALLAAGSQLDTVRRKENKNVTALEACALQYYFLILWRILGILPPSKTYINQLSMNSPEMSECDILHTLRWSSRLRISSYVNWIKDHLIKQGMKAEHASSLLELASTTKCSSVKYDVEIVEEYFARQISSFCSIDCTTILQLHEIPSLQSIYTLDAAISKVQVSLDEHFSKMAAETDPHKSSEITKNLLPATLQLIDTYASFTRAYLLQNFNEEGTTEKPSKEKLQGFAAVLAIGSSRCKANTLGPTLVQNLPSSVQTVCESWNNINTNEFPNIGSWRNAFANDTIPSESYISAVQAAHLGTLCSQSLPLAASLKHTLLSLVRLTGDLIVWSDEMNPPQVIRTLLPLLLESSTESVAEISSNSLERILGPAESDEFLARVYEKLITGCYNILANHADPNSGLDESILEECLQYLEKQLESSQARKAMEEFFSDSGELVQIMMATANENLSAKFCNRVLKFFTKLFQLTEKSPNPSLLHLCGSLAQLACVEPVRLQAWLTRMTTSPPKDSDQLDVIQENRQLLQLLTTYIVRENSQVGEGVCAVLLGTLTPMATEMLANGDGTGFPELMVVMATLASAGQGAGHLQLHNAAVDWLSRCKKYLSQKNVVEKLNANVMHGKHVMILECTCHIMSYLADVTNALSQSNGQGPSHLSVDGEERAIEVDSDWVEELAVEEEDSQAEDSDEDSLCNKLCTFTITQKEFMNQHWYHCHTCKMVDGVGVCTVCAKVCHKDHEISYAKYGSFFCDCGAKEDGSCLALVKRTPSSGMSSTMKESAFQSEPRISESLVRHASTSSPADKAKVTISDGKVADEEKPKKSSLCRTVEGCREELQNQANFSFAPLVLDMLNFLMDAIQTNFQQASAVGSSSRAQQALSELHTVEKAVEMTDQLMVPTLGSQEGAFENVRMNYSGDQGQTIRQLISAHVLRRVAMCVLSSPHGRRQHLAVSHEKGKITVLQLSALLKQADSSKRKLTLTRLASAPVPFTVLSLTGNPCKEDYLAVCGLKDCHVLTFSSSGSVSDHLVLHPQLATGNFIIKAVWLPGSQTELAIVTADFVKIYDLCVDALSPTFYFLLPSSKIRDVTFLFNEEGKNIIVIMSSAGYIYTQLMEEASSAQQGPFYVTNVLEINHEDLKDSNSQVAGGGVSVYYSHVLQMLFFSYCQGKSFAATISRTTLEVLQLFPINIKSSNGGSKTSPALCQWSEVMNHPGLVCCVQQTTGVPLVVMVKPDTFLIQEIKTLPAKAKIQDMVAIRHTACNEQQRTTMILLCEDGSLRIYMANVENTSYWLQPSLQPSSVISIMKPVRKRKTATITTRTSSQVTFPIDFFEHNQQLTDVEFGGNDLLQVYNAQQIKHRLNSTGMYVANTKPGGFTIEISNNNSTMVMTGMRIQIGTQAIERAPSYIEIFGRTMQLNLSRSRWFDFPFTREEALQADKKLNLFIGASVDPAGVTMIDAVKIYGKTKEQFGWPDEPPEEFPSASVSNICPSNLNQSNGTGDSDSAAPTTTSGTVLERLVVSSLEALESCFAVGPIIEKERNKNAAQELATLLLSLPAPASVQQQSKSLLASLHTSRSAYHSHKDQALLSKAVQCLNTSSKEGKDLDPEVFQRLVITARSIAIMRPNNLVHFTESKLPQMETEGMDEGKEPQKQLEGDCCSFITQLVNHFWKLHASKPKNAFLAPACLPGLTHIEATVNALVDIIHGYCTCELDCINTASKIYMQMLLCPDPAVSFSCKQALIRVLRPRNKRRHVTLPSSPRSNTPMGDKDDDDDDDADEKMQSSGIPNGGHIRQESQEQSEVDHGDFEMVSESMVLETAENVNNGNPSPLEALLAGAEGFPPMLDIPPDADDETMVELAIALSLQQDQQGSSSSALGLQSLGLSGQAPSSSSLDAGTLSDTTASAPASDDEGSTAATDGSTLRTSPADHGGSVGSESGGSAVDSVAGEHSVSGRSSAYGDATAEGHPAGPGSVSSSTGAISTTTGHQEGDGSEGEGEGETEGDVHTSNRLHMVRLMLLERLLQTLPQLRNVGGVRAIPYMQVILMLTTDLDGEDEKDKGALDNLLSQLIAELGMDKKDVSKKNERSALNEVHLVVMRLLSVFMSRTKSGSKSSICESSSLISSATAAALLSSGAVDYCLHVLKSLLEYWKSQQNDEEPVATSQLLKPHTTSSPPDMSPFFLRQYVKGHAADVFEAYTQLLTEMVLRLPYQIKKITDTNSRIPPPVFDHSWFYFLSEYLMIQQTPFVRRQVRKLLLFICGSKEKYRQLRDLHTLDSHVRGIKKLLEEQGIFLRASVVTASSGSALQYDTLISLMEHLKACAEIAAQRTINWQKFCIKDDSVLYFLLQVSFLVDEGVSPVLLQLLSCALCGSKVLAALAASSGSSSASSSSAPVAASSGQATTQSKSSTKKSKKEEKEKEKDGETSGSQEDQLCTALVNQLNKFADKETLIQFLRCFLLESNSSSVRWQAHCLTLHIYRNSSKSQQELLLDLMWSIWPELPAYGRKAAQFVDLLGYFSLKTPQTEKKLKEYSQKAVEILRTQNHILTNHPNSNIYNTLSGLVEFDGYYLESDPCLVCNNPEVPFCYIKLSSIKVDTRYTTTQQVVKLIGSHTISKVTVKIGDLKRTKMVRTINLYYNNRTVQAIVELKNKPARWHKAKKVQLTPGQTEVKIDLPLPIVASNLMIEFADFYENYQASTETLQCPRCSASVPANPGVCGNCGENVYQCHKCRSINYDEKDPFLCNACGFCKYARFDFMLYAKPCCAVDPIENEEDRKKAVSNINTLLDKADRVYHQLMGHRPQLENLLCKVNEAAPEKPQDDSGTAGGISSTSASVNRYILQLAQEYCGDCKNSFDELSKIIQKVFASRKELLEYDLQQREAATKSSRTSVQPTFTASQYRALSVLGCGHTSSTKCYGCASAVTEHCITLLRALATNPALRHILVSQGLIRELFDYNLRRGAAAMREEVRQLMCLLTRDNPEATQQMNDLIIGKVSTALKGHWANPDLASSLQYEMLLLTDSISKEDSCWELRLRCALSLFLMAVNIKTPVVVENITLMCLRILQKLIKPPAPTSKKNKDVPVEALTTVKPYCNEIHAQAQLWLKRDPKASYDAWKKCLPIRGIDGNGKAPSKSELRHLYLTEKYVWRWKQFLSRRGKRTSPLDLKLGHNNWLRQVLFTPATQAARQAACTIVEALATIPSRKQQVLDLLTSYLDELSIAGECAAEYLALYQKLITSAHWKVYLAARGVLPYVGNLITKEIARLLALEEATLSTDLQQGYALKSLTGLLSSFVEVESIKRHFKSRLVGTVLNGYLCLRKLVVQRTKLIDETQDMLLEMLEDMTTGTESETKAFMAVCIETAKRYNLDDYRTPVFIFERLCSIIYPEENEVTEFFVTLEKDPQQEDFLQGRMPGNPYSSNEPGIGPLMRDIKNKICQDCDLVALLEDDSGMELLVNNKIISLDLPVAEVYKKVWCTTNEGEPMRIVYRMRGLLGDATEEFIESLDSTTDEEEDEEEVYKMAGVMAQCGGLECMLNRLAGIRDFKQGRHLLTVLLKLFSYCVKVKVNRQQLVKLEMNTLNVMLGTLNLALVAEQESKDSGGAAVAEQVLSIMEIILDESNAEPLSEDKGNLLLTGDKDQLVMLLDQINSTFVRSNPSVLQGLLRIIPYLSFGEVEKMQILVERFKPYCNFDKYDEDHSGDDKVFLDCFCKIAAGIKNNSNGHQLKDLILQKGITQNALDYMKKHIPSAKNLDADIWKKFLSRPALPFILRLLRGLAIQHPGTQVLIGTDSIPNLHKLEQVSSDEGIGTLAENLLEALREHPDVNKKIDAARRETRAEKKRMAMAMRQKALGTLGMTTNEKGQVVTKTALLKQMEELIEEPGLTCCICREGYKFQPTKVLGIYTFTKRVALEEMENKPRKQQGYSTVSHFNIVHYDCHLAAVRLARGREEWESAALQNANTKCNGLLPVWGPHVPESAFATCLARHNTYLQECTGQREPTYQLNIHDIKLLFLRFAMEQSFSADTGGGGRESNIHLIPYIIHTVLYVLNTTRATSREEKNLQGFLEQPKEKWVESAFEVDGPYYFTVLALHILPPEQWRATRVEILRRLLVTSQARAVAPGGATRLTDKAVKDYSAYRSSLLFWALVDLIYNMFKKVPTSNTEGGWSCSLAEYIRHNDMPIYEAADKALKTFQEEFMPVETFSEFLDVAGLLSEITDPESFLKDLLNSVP
UniProt Q9P0J7: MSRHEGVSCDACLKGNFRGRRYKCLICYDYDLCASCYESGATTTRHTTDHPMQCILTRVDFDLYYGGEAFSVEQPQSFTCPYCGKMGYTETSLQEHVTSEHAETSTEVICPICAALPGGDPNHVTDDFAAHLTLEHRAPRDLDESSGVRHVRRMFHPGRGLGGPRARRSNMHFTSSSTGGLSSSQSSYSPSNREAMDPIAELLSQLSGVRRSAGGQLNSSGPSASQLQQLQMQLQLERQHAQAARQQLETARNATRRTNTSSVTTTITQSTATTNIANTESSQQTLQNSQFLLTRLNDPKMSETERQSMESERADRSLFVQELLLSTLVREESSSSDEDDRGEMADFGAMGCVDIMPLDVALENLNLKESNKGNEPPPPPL

These are yes or no findings as the source states them, for the method shown. Some results given as binding are weak or reduced against the parent protein; the word gives no strength.

Assay [1] addresses Arabidopsis thaliana UBR4 (also known as BIG) (Arabidopsis thaliana) (UniProt Q9SRU2). Put plainly: cryo-EM structure; complex from co-expression of AtUBR4, AtDI19 and AtCALM1; medium resolution map of the dimerization interface, modelled using AlphaFold3; both purified.
In assay [2] the target is human UBR4 (human) (UniProt Q5T4S7). Put plainly: mass photometry; isolated human UBR4/KCMF1/CALM1 complex, co-expressed in insect cells and purified via a tag on UBR4; both purified.
The target is the same in assay [3]. Put plainly: cryo-EM structure; human UBR4 complex (HsUBR4_(2)/KCMF1_(2)/CALM1_(2)); treatment with EGTA did not affect the CALM1 occupancy; both purified.

On to “Arabidopsis thaliana calmodulin 1 (from UniProt P0DH95 1-149)”, for which, in assay [1], the binding entry is “binds”.

For the substance human KCMF1 (from UniProt Q9P0J7 1-381), the binding entry in the assay with human UBR4 (human) [2] and with human UBR4 (human) [3] was “binds” in each case.

For “human UBR4 (from UniProt Q5T4S7 1-5183) (enzyme)”, the binding entry with human UBR4 (human) [3] is “binds”.
